In publication PMC4381070 one finds binding data, which are given here for 2 substances.

Chains of the proteins cited; added tags and fusions are not shown.
UniProt Q9BQ69: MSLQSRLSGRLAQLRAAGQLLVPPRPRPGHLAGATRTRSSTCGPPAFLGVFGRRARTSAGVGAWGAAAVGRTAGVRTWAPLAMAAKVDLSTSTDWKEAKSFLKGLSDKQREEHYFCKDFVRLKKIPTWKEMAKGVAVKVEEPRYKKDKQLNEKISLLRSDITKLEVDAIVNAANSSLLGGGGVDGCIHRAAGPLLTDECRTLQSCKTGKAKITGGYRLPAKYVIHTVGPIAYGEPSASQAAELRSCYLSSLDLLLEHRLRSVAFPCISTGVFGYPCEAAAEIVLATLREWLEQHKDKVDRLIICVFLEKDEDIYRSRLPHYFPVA
UniProt Q9Y6K9: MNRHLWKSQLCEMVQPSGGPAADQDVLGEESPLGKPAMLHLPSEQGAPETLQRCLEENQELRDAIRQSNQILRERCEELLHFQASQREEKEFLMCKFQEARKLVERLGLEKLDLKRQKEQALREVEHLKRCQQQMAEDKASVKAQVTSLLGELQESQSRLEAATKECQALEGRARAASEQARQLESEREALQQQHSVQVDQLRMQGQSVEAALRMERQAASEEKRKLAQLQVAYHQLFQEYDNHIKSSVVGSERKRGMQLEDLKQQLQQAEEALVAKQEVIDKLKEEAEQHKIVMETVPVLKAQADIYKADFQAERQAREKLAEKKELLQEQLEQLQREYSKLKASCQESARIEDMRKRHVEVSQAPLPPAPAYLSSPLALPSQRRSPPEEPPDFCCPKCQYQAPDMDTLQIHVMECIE
UniProt P09874: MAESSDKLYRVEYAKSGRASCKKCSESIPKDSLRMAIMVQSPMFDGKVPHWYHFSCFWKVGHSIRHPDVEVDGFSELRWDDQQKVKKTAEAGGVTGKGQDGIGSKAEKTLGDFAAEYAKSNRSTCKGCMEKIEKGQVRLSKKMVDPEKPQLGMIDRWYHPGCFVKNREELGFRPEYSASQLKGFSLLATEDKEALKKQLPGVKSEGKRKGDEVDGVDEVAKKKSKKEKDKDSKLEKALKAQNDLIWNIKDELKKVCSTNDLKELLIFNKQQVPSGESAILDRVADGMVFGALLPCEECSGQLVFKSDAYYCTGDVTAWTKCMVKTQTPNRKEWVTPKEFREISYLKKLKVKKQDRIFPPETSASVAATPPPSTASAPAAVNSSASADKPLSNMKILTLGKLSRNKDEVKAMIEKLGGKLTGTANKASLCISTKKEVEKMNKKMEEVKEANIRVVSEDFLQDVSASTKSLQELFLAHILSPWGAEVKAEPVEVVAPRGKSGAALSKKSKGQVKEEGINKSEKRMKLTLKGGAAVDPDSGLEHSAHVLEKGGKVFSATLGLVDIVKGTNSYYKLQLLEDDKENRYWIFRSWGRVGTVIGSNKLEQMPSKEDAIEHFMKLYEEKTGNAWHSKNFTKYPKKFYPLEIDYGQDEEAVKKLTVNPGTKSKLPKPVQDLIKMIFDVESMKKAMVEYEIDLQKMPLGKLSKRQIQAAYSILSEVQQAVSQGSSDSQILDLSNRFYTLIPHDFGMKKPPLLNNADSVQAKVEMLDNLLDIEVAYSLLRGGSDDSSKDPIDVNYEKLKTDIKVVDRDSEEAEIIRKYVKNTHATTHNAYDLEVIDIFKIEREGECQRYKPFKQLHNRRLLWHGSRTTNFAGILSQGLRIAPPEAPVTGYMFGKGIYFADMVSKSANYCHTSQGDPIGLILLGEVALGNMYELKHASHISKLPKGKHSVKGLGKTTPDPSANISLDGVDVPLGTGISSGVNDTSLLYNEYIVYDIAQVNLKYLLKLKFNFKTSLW

No constants are given. Whether binding was seen depends on the method and setting. In cells and extracts the contact can be indirect. These calls come from enrichment with a bait or labelling near it, and not all partners need be listed.

In the assay the target is FLAG-LRP16 (wild-type Leukemia Related Protein 16) (UniProt Q9BQ69). Briefly: affinity purification with mass spectrometry; HeLa cells over-expressing FLAG-LRP16, VP16 (50 μM, 30 min); IP with anti-FLAG agarose, elution with 3×FLAG peptide, SDS-PAGE, silver staining, visible bands excised; FLAG vector as control.

For “IKKγ (endogenous) (from UniProt Q9Y6K9 1-419)”, the binding entry is on record as “binds”.

On to “PARP1 (endogenous) (from UniProt P09874 1-1014)”, for which the binding result was “binds”.
